Source: publication PMC9031500
These are yes or no findings as the source states them, for the method shown. Binding seen in cells or lysates may run through a third protein. Some entries that bind do so weakly or less than the wild type.

Columns and labels:
[1] = molecular target: T1, silent mating type information regulation 2 homolog 1 (SIRT1) (mouse (endogenous in hypothalamus of B6SJL mice)) (UniProt Q923E4); experiment: co-IP; hypothalamus protein extracts of SOD1G93A transgenic mice at 90 days (presymptomatic) and 120 days (symptomatic); precleared with normal mouse IgG and protein A/G agarose; IP with anti-SIRT1 or anti-orexin-prepro overnight at 4 °C; washed with RIPA buffer; western blot
T1 sequence: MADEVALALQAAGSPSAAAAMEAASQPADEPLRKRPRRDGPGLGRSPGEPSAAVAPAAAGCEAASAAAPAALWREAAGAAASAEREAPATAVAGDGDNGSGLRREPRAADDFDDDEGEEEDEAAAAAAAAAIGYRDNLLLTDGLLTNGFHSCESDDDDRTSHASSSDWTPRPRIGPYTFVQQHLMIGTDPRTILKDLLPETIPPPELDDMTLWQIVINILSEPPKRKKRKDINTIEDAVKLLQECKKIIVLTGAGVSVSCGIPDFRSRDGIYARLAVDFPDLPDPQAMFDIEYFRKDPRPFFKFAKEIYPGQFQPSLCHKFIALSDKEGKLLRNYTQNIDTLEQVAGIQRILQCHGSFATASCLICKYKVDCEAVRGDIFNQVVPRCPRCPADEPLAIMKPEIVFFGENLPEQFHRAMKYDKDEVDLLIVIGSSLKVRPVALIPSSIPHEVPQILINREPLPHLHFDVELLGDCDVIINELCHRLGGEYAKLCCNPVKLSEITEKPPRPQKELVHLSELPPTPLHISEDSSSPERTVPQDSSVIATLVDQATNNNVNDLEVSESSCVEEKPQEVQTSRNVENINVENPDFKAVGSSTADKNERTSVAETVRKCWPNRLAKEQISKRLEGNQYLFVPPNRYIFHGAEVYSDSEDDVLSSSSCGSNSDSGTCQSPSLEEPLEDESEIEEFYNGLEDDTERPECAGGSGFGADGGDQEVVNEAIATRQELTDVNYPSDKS

[2] = molecular target: T1, silent mating type information regulation 2 homolog 1 (SIRT1) (mouse (endogenous in hypothalamus of B6SJL mice)); experiment: condition: only in hypothalamus extracts of nontransgenic littermate controls; co-IP; hypothalamus protein extracts of nontransgenic littermate control mice at 90 and 120 days; precleared with normal mouse IgG and protein A/G agarose; IP with anti-SIRT1 or anti-orexin-prepro overnight at 4 °C; washed with RIPA buffer; western blot

- binding [1]: binds
- binding [2]: no binding
B1: prepro-orexin (protein, UniProt O55241 33-130)
chain: QPLPDCCRQKTCSCRLYELLHGAGNHAAGILTLGKRRPGPPGLQGRLQRLLQANGNHAAGILTMGRRAGAELEPHPCSGRGCPTVTTTALAPRGGSGV
